The assay deals with HEK293T (UBE3A T485A transfected, BAR Wnt reporter). Description: Renilla luciferase signal (cell health) relative to plate median (fold (linear ratio)); higher = higher Renilla signal. Conditions: 24 h. The essentials: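 HEK293T cells were seeded at 4500 cells/well in white 384-well plates and grown in DMEM with 10% FBS at 37°C and 5% CO2. The cells were transfected using Fugene 6 with a BAR firefly luciferase Wnt reporter, TK-Renilla and an expression plasmid, and four hours later robots added the chemicals at 0.01–100 uM for 24 h before a Dual-Glo luciferase readout. Wnt activity was taken as the firefly/Renilla ratio and cell health as raw Renilla, each median-centred per plate. Values are averages of four biological replicates.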

This list holds what a sample rich in highest values left over.

For `Oc1c(Cl)cc(Cl)cc1Cl` [2,4,6-Trichlorophenol], the Renilla luciferase signal was determined as 0.574 (concentration: 0.1 uM), 0.674 (concentration: 1 uM), 0.478 (concentration: 10 uM) and 0.556 (concentration: 100 uM).
The corresponding values for `CC(C)(C)c1ccc(O)cc1` [4-tert-Butylphenol] are 0.859, 0.754, 0.853 and 0.79.
In the case of `Cc1ccc(O)cc1C` [3,4-Dimethylphenol], the Renilla luciferase signal by setting is: (concentration: 0.1 uM) 1.18; (concentration: 1 uM) 1.32; (concentration: 10 uM) 1.41; (concentration: 100 uM) 1.22.

For the origin of these results see the supplement of paper PMC9254222.
